Data as given in the supplement of paper PMC10849652.
This is one part of the list. Residues, ends and D or L forms follow the SMILES beside them. *: point of attachment. Cbz = O=C(OCc1ccccc1)*

Sequences of proteins named here, by UniProt entry; tags and fusion partners are left off. A change or cut given only in a name is not applied to a line headed by its entry.
UniProt Q8IY95: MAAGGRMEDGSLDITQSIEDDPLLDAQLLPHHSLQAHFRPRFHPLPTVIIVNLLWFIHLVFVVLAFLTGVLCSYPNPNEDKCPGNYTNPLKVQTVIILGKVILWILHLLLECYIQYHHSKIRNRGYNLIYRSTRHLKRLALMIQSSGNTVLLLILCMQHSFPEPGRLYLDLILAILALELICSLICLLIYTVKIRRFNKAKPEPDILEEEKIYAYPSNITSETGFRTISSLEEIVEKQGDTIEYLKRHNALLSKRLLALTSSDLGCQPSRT
UniProt Q13829: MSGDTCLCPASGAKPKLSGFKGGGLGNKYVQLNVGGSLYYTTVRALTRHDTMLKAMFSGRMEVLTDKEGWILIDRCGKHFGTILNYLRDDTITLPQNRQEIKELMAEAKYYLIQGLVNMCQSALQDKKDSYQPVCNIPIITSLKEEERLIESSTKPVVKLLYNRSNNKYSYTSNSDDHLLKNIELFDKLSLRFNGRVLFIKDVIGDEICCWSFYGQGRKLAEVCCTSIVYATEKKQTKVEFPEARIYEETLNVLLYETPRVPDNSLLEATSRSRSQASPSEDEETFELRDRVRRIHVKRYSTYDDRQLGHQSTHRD
UniProt Q9Y490: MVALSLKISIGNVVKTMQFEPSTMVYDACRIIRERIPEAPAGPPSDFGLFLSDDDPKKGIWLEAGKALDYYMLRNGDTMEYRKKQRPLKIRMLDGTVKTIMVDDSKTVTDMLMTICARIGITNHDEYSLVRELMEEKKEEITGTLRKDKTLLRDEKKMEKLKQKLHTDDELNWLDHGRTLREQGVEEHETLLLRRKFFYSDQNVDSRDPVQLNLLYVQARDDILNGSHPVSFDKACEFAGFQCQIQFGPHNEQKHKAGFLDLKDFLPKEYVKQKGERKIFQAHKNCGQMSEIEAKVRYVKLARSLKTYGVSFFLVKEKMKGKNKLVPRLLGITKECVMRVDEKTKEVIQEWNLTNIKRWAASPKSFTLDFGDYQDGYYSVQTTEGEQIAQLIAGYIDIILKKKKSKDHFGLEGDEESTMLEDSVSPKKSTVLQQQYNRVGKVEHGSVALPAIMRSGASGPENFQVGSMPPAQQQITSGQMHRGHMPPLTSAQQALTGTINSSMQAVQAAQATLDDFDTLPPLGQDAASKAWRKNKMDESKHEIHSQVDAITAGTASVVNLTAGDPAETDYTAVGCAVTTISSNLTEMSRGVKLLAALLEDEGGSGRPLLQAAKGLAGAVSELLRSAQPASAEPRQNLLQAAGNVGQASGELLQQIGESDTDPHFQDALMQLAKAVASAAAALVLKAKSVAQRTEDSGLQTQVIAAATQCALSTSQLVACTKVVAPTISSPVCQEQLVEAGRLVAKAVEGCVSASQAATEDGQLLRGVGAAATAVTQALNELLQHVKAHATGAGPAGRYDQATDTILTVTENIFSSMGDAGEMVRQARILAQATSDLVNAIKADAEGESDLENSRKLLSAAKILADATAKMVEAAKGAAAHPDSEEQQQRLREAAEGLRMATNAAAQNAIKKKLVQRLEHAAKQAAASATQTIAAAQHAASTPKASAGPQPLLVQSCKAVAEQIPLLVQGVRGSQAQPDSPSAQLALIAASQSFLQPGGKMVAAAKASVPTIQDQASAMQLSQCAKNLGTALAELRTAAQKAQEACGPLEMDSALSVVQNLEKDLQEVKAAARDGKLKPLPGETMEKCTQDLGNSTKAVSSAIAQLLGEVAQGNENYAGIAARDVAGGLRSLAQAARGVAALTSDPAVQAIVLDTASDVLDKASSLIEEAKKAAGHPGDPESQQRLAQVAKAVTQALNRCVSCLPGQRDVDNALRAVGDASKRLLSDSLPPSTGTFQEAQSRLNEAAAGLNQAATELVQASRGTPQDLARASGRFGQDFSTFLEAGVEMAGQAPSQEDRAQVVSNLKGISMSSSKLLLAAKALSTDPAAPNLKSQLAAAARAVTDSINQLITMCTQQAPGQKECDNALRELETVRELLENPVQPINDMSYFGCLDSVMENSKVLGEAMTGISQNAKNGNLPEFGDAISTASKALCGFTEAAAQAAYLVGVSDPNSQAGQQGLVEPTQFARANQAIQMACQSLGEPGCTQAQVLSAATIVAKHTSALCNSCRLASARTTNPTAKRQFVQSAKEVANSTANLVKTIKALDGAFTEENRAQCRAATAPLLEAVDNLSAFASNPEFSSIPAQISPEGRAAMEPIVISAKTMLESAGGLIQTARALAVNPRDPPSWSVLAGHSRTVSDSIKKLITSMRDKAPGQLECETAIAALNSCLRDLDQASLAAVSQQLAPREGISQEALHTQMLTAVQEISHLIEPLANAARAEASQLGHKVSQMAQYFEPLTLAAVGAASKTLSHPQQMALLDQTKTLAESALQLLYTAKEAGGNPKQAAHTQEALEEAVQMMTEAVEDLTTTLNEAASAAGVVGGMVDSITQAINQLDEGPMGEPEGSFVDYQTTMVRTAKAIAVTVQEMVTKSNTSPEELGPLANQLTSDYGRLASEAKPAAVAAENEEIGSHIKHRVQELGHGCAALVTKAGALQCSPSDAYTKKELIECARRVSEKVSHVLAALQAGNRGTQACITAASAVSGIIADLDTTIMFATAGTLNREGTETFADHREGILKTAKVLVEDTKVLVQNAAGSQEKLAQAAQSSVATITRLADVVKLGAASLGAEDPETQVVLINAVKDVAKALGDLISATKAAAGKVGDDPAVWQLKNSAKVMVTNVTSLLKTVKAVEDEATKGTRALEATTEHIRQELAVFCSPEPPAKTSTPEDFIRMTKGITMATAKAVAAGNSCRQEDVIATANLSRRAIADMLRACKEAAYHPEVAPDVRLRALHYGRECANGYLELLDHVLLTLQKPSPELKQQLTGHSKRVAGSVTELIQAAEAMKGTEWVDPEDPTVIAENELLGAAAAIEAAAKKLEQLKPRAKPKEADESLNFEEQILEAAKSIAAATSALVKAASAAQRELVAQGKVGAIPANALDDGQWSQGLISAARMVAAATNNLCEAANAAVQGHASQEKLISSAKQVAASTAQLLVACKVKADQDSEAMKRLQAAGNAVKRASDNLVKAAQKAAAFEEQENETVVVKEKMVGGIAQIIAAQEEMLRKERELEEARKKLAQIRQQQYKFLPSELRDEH
UniProt O15321, whole entry, looked up: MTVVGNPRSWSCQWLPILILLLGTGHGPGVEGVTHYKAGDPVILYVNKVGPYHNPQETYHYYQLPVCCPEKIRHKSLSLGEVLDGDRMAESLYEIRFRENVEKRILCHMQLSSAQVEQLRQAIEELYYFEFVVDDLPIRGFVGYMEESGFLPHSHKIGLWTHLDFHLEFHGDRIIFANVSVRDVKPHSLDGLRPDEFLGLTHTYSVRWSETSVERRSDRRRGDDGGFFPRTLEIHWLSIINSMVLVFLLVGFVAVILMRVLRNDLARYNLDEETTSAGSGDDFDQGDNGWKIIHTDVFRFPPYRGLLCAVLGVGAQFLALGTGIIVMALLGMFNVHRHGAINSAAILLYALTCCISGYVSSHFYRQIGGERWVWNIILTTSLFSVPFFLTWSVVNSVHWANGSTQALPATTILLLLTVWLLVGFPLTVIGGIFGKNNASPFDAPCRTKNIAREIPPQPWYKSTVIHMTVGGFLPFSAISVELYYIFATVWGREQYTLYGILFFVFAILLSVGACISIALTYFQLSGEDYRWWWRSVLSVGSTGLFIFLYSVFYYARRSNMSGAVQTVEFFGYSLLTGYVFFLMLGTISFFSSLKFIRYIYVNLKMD
UniProt Q9BXJ8: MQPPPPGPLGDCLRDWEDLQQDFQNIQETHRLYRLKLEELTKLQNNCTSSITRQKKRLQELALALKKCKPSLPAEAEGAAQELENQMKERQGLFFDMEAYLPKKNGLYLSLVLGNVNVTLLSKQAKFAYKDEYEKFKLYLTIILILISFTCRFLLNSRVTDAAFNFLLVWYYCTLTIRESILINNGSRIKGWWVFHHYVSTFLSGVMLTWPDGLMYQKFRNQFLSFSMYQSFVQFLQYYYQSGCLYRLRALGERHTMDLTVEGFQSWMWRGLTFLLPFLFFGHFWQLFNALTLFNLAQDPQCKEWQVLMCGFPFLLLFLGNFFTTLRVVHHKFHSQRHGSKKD
UniProt Q9BVK6: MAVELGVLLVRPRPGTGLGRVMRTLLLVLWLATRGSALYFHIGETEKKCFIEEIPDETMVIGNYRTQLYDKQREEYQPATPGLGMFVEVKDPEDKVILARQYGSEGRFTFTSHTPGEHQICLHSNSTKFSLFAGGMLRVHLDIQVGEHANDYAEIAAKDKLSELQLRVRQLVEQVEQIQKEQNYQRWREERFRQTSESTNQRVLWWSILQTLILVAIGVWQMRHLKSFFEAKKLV
UniProt Q9H061: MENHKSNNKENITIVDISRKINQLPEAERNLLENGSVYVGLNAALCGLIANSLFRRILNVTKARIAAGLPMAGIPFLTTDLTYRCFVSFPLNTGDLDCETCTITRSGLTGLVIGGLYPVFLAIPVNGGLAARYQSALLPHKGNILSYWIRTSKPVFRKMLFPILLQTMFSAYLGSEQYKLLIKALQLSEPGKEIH

Legend:
Test in all cases: log2 fold change, soluble protein after heating vs DMSO (PISA); higher = thermal stabilisation; K562 cells, 10 uM, 30 min; active = over 0.2 and 3.5 SD of the protein, either way, in both replicates (recomputed)
IRAK-1-4 Inhibitor I = compound: C1COCCN1CCN2C3=CC=CC=C3N=C2NC(=O)C4=CC(=CC=C4)[N+](=O)[O-] [IRAK-1-4 Inhibitor I]
Summary of the method: (§1)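 For each measurement, 10 μM compound was applied for 30 min to K562 cells at 2×10^6 cells/mL. Aliquots were heated for 3 min across 48°C-58°C, pooled, and extracted in PBS with 0.5% NP-40 at 4°C; the supernatant after 21,000xg for 90 min was soluble protein. This was quantified by TMTpro 16plex LC-MS/MS with channel sums equalised, and thermal stability was reported relative to control samples from duplicates, on a log2 fold-change scale.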

ibrutinib = compound: C=CC(=O)N1CCC[C@@H](n2nc(-c3ccc(Oc4ccccc4)cc3)c3c(N)ncnc32)C1 [ibrutinib]
Summary of the method: as §1

[1] = compound: CC(=O)c1cnc2ccc(-c3cc(Cl)c(O)c(Cl)c3)nc2c1N[C@H]1CC[C@H](CN(C)C)CC1
Summary of the method: as §1

ralimetinib = compound: CC(C)(C)Cn1c(N)nc2ccc(-c3[nH]c(C(C)(C)C)nc3-c3ccc(F)cc3)nc21 [ralimetinib]
Summary of the method: as §1

[2] = compound: CC(C)(O)CC(=O)NCCn1ccc2ncnc(Nc3ccc(Oc4cccc(C(F)(F)F)c4)c(Cl)c3)c21
Summary of the method: as §1

[3] = compound: CC(C)C1=C2N=C(C=C(N2N=C1)NCC3=CC=CC=C3)NCCCCCCN
Summary of the method: as §1

[4] = compound: CC(C)C[C@@H](C=O)NC(=O)[C@H](CC(C)C)NC(=O)[C@H](CC(C)C)NC(=O)OCc1ccccc1
Summary of the method: as §1

pinometostat = compound: CC(C)N(C[C@H]1O[C@@H](n2cnc3c(N)ncnc32)[C@H](O)[C@@H]1O)[C@H]1C[C@@H](CCc2nc3cc(C(C)(C)C)ccc3[nH]2)C1 [pinometostat]
Summary of the method: as §1

[5] = compound: CC1=C(C2=C(C=C1)C(=O)C3=CC=CC=C3N2CCCN)C
Summary of the method: as §1

[6] = compound: CC1=C(C=C(C=C1)NC(=O)C2=CC(=CC=C2)C(C)(C)C#N)NC3=CC4=C(C=C3)N=CN(C4=O)C
Summary of the method: as §1

[7] = compound: CC1=C(C=C(C=C1)NC(=O)C2=CC(=CC=C2)N(C)C)NC(=O)C3=CC=C(C=C3)O
Summary of the method: as §1

[8] = compound: CC1=CC=C(C=C1)SC2=C3C=C(SC3=CN=C2)C(=O)N
Summary of the method: as §1

[9] = compound: CC1=NC(=CC=C1)C2=C(N=C(N2)C(C)(C)C)C3=CC4=NC=CN=C4C=C3
Summary of the method: as §1

Nexturastat A = compound: CCCCN(Cc1ccc(C(=O)NO)cc1)C(=O)Nc1ccccc1 [Nexturastat A]
Summary of the method: as §1

vemurafenib = compound: CCCS(=O)(=O)Nc1ccc(F)c(C(=O)c2c[nH]c3ncc(-c4ccc(Cl)cc4)cc23)c1F [vemurafenib]
Summary of the method: as §1

[10] = compound: CCCS(=O)(=O)Nc1ccc(F)c(C(=O)c2c[nH]c3ncc(Cl)cc23)c1F
Summary of the method: as §1

[11] = compound: CCCc1cc(C)[nH]c(=O)c1CNC(=O)c1cc(-c2ccnc(N3CCN(C)CC3)c2)cc2c1cnn2C(C)C
Summary of the method: as §1

givinostat = compound: CCN(CC)Cc1ccc2cc(COC(=O)Nc3ccc(C(=O)NO)cc3)ccc2c1 [givinostat]
Summary of the method: as §1

barasertib = compound: CCN(CCCOc1ccc2c(Nc3cc(CC(=O)Nc4cccc(F)c4)[nH]n3)ncnc2c1)CCOP(=O)(O)O [barasertib]
Summary of the method: as §1

[12] = compound: CC1=C(C(CC(=O)N1)C2=CC=C(C=C2)C(F)(F)F)C(=O)NC3=C(C=C4C(=C3)C=NN4)F
Summary of the method: as §1

Measured: log2 fold change

TMEM192 (UniProt Q8IY95)
active: [3] -0.481
inactive: IRAK-1-4 Inhibitor I 0.047 | ibrutinib -0.014 | [1] -0.012 | ralimetinib 0.025 | [2] 0.004 | [4] 0.029 | pinometostat 0.051 | [5] -0.019 | [6] 0.013 | [7] -0.032 | [8] 0.026 | [9] -0.028 | Nexturastat A 0.004 | vemurafenib -0.006 | [10] -0.026 | [11] -0.014 | givinostat -0.038 | barasertib -0.005

TNFAIP1 (UniProt Q13829)
inactive: IRAK-1-4 Inhibitor I 0.042 | ibrutinib 0.018 | [1] -0.118 | ralimetinib -0.036 | [2] -0.05 | [3] 0.301 | [4] 0.026 | pinometostat 0.015 | [12] -0.037 | [5] -0.15 | [7] 0.051 | [8] -0.051 | [9] 0.094 | Nexturastat A 0.042 | vemurafenib -0.056 | [10] -0.095 | [11] -0.061 | givinostat -0.001 | barasertib 0.047

TMEM189-UBE2V1 (UniProt I3L0A0)
inactive: IRAK-1-4 Inhibitor I 0.048 | ibrutinib 0.022 | [1] -0.022 | ralimetinib 0.006 | [2] -0.024 | [3] 0.031 | [4] -0.028 | pinometostat -0.046 | [5] 0.037 | [6] -0.067 | [7] 0.017 | [8] 0.006 | [9] -0.003 | Nexturastat A -0.042 | vemurafenib -0.005 | [10] -0.056 | [11] -0.182 | givinostat 0.024 | barasertib -0.054

TLN1 (UniProt Q9Y490)
inactive: IRAK-1-4 Inhibitor I -0.016 | ibrutinib -0.045 | [1] 0.015 | ralimetinib 0.025 | [2] -0.088 | [3] -0.048 | [4] -0.018 | pinometostat -0.021 | [12] -0.007 | [5] 0.031 | [6] 0.042 | [7] -0.055 | [8] 0.029 | [9] 0.072 | Nexturastat A -0.077 | vemurafenib 0.049 | [10] 0.069 | [11] 0.001 | givinostat 0.021 | barasertib 0.021

TM9SF1 (UniProt O15321)
inactive: IRAK-1-4 Inhibitor I 0.228 | ibrutinib 0.243 | [1] -0.028 | ralimetinib 0.105 | [2] 0.153 | [3] 0.093 | [4] 0.033 | pinometostat 0.16 | [12] -0.048 | [5] -0.009 | [6] -0.035 | [7] 0.001 | [8] -0.036 | [9] -0.052 | Nexturastat A -0.008 | vemurafenib -0.019 | [10] -0.014 | [11] 0.05 | givinostat 0 | barasertib -0.095

TMEM120A (UniProt Q9BXJ8)
inactive: IRAK-1-4 Inhibitor I -0.066 | ibrutinib -0.183 | [1] -0.068 | ralimetinib -0.003 | [2] -0.429 | [3] -0.006 | [4] -0.078 | pinometostat 0.093 | [5] 0.051 | [6] 0.181 | [7] 0.007 | [8] 0.115 | [9] -0.004 | Nexturastat A -0.259 | vemurafenib 0.06 | [10] 0.085 | [11] -0.007 | givinostat 0.116 | barasertib -0.006

TMED9 (UniProt Q9BVK6)
inactive: IRAK-1-4 Inhibitor I 0.052 | ibrutinib 0 | [1] 0.047 | ralimetinib 0.028 | [2] -0.035 | [3] -0.03 | [4] -0.048 | pinometostat -0.023 | [12] -0.075 | [5] 0.008 | [6] -0.022 | [7] 0.004 | [8] 0.007 | [9] -0.005 | Nexturastat A -0.084 | vemurafenib -0.021 | [10] 0.04 | [11] 0.011 | givinostat 0.01 | barasertib 0.031

TMEM126A (UniProt Q9H061)
inactive: IRAK-1-4 Inhibitor I 0.032 | ibrutinib 0.038 | [1] 0.023 | ralimetinib -0.049 | [2] 0.002 | [3] -0.029 | [4] 0.01 | pinometostat -0.066 | [12] -0.022 | [5] 0.007 | [6] -0.009 | [7] -0.013 | [8] -0.003 | [9] -0.002 | Nexturastat A -0.035 | vemurafenib 0.001 | [10] -0.036 | [11] -0.025 | givinostat 0.006 | barasertib -0.016
